Measured values taken from PubChem BioAssay AID220 (DTP/NCI, 2004).
The list shows only some results of the screen, not a fair sample: it is rich in T/C values a quarter to a half above the control, in often repeated tests (any T/C) and in doses without a T/C. Further doses and runs are listed elsewhere. T/C is the treated group as % of the vehicle group. Schedule codes are those of the source, taken here to give the interval after Q, in days (D) or hours (H), and the number of doses after X. Some T/C values are followed by the survivors on the day toxicity was checked, most often the fifth; without a count, all were alive then. Some entries were tested several times; the values are given in rising order. Counts like (3×) say how often a value occurs here. Some T/C values are negative: the treated tumours shrank. Some doses have a count of surviving animals in place of a T/C: the source files T/C as zero there, which appears to mark a toxic dose or a test without result, not a measured value. Counts of survivors are from the toxicity check (mostly the fifth day) where no day follows; animals may have died later.

Test system: CD8F1 mice, subcutaneous mammary adenocarcinoma, T/C%
Assay: NCI In Vivo Anticancer Drug Screen. Data for tumor model Mammary Adenocarcinoma CD8F1 (subcutaneous) in CD8F1
Conditions: higher T/C = larger tumour
Summary of the method: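 Mice carrying transplanted tumors received test compound, and survival or tumor size was recorded. Each value is the treated-group measurement divided by the corresponding measurement in vehicle-dosed controls.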

Question: COc1cccc2c1C(=O)c1c(O)c3c(c(O)c1C2=O)C[C@@](O)(C(=O)CO)C[C@@H]3OC1CC(N)C(O)C(C)O1 (stereo partly specified) was tested. Which T/C (T/C endpoint: mean tumor weight, dose: 1.0 mg/kg/injection, schedule: Q07DX006 (ip), vehicle: saline, evaluated on day 50) did it give?
Answer: Its T/C is 144 % of control.

Question: What about the T/C (T/C endpoint: median tumor weight (est.), dose: 0.5 mg/kg/injection, schedule: Q07DX005 (ip), vehicle: saline, evaluated on day 30) of the same compound?
Answer: The T/C was 53, 70, 71, 92 [8 of 9 alive], 97 % of control.

Question: What about the T/C (T/C endpoint: median tumor weight (est.), dose: 0.5 mg/kg/injection, schedule: Q07DX005 (ip), vehicle: saline, evaluated on day 32) of the same compound?
Answer: The T/C was 67 % of control.

Question: And the T/C (T/C endpoint: median tumor weight (est.), dose: 0.5 mg/kg/injection, schedule: Q07DX005 (ip), vehicle: saline, evaluated on day 34)?
Answer: The T/C was 113 % of control.

Question: And the T/C (T/C endpoint: median tumor weight (est.), dose: 0.5 mg/kg/injection, schedule: Q07DX005 (ip), vehicle: water, evaluated on day 30)?
Answer: The T/C was 32, 46, 76, 82, 113 % of control [9 of 10 alive].

Question: And the T/C (T/C endpoint: median tumor weight (est.), dose: 1.0 mg/kg/injection, schedule: Q07DX005 (ip), vehicle: saline, evaluated on day 30)?
Answer: Its T/C is 20, 52, 89, 92, 139 % of control.

Question: And the T/C (T/C endpoint: median tumor weight (est.), dose: 1.0 mg/kg/injection, schedule: Q07DX005 (ip), vehicle: saline, evaluated on day 32)?
Answer: Its T/C is 111 % of control.

Question: And the T/C (T/C endpoint: median tumor weight (est.), dose: 1.0 mg/kg/injection, schedule: Q07DX005 (ip), vehicle: saline, evaluated on day 34)?
Answer: Its T/C is 37 % of control [9 of 10 alive].

Question: What about the T/C (T/C endpoint: median tumor weight (est.), dose: 1.0 mg/kg/injection, schedule: Q07DX005 (ip), vehicle: water, evaluated on day 30) of the same compound?
Answer: The T/C was 23, 48, 57 (2×), 78 % of control.

Question: What about the T/C (T/C endpoint: median tumor weight (est.), dose: 2.0 mg/kg/injection, schedule: Q07DX005 (ip), vehicle: saline, evaluated on day 30) of the same compound?
Answer: The T/C was 16, 31 (2×), 36, 63 % of control.

Question: What about the T/C (T/C endpoint: median tumor weight (est.), dose: 2.0 mg/kg/injection, schedule: Q07DX005 (ip), vehicle: saline, evaluated on day 32) of the same compound?
Answer: Its T/C is 70 % of control.

Question: And the T/C (T/C endpoint: median tumor weight (est.), dose: 2.0 mg/kg/injection, schedule: Q07DX005 (ip), vehicle: saline, evaluated on day 34)?
Answer: Its T/C is 16 % of control.

Question: What about the T/C (T/C endpoint: median tumor weight (est.), dose: 2.0 mg/kg/injection, schedule: Q07DX005 (ip), vehicle: water, evaluated on day 30) of the same compound?
Answer: Its T/C is 20, 31 [9 of 10 alive], 40, 57, 61 % of control.

Question: What about the T/C (T/C endpoint: median tumor weight (est.), dose: 4.0 mg/kg/injection, schedule: Q07DX005 (ip), vehicle: saline, evaluated on day 30) of the same compound?
Answer: The T/C was 11, 21, 36 % of control.

Question: And the T/C (T/C endpoint: median tumor weight (est.), dose: 4.0 mg/kg/injection, schedule: Q07DX005 (ip), vehicle: saline, evaluated on day 32)?
Answer: Its T/C is 11 % of control.

Question: What about the survivor count (T/C endpoint: median tumor weight (est.), dose: 4.0 mg/kg/injection, schedule: Q07DX005 (ip), vehicle: saline) of the same compound?
Answer: The survivor count was 6 of 10 on day 30.

Question: What about the T/C (T/C endpoint: median tumor weight (est.), dose: 4.0 mg/kg/injection, schedule: Q07DX005 (ip), vehicle: water, evaluated on day 30) of the same compound?
Answer: The T/C was 14, 19 [9 of 10 alive], 27, 59 % of control [9 of 10 alive].

Question: What about the survivor count (T/C endpoint: median tumor weight (est.), dose: 4.0 mg/kg/injection, schedule: Q07DX005 (ip), vehicle: water) of the same compound?
Answer: Its survivor count is 1 of 10.

Question: What about the survivor count (T/C endpoint: median tumor weight (est.), dose: 5.0 mg/kg/injection, schedule: Q07DX005 (ip), vehicle: saline) of the same compound?
Answer: The survivor count was 1 of 10 on day 30.

Question: And the survivor count (T/C endpoint: median tumor weight (est.), dose: 6.0 mg/kg/injection, schedule: Q07DX005 (ip), vehicle: saline)?
Answer: Its survivor count is 2 of 10 on day 30.

Question: What about the survivor count (T/C endpoint: median tumor weight (est.), dose: 8.0 mg/kg/injection, schedule: Q07DX005 (ip), vehicle: saline) of the same compound?
Answer: The survivor count was 0 of 10 on day 30 and 2 of 10 on day 30.

Question: What about the survivor count (T/C endpoint: median tumor weight (est.), dose: 10.0 mg/kg/injection, schedule: Q07DX005 (ip), vehicle: saline) of the same compound?
Answer: The survivor count was 0 of 10 on day 30.

Question: And the survivor count (T/C endpoint: median tumor weight (est.), dose: 16.0 mg/kg/injection, schedule: Q07DX005 (ip), vehicle: saline)?
Answer: Its survivor count is 0 of 10 on day 30.

Question: And the survivor count (T/C endpoint: median tumor weight (est.), dose: 16.0 mg/kg/injection, schedule: Q07DX005 (ip), vehicle: water)?
Answer: Its survivor count is 0 of 10 on day 30.

Question: What about the survivor count (T/C endpoint: median tumor weight (est.), dose: 20.0 mg/kg/injection, schedule: Q07DX005 (ip), vehicle: saline) of the same compound?
Answer: Its survivor count is 0 of 10 on day 30.

Question: What about the survivor count (T/C endpoint: median tumor weight (est.), dose: 32.0 mg/kg/injection, schedule: Q07DX005 (ip), vehicle: water) of the same compound?
Answer: Its survivor count is 0 of 10 on day 30.

Question: What about the survivor count (T/C endpoint: median tumor weight (est.), dose: 40.0 mg/kg/injection, schedule: Q07DX005 (ip), vehicle: saline) of the same compound?
Answer: Its survivor count is 0 of 10 on day 30.

Question: And the T/C (T/C endpoint: median tumor weight change, dose: 4.4 mg/kg/injection, schedule: Q01DX001 (ip), vehicle: saline, evaluated on day 30)?
Answer: The T/C was 63 % of control.

Question: What about the T/C (T/C endpoint: median tumor weight change, dose: 4.4 mg/kg/injection, schedule: Q01DX001 (ip), vehicle: saline, evaluated on day 33) of the same compound?
Answer: Its T/C is 8 and 35 % of control.

Question: And the T/C (T/C endpoint: median tumor weight change, dose: 4.4 mg/kg/injection, schedule: Q01DX001 (ip), vehicle: saline, evaluated on day 35)?
Answer: Its T/C is 91 % of control.

Question: What about the T/C (T/C endpoint: median tumor weight change, dose: 6.7 mg/kg/injection, schedule: Q01DX001 (ip), vehicle: saline, evaluated on day 30) of the same compound?
Answer: Its T/C is 49 % of control.

Question: What about the T/C (T/C endpoint: median tumor weight change, dose: 6.7 mg/kg/injection, schedule: Q01DX001 (ip), vehicle: saline, evaluated on day 33) of the same compound?
Answer: The T/C was -1 and 16 % of control.

Question: And the T/C (T/C endpoint: median tumor weight change, dose: 6.7 mg/kg/injection, schedule: Q01DX001 (ip), vehicle: saline, evaluated on day 35)?
Answer: The T/C was 78 % of control.

Question: What about the T/C (T/C endpoint: median tumor weight change, dose: 10.0 mg/kg/injection, schedule: Q01DX001 (ip), vehicle: saline, evaluated on day 30) of the same compound?
Answer: Its T/C is 32 % of control.

Question: What about the T/C (T/C endpoint: median tumor weight change, dose: 10.0 mg/kg/injection, schedule: Q01DX001 (ip), vehicle: saline, evaluated on day 33) of the same compound?
Answer: Its T/C is -32 % of control (2×).

Question: What about the T/C (T/C endpoint: median tumor weight change, dose: 10.0 mg/kg/injection, schedule: Q01DX001 (ip), vehicle: saline, evaluated on day 35) of the same compound?
Answer: The T/C was 52 % of control [9 of 10 alive on day 33].

Question: What about the T/C (T/C endpoint: median tumor weight change, dose: 15.0 mg/kg/injection, schedule: Q01DX001 (ip), vehicle: saline, evaluated on day 27) of the same compound?
Answer: The T/C was 13 % of control [7 of 10 alive on day 27].

Question: What about the T/C (T/C endpoint: median tumor weight change, dose: 15.0 mg/kg/injection, schedule: Q01DX001 (ip), vehicle: saline, evaluated on day 30) of the same compound?
Answer: The T/C was -40 % of control [9 of 10 alive on day 27].

Question: And the T/C (T/C endpoint: median tumor weight change, dose: 15.0 mg/kg/injection, schedule: Q01DX001 (ip), vehicle: saline, evaluated on day 33)?
Answer: Its T/C is -66 and -65 % of control.

Question: What about the survivor count (T/C endpoint: median tumor weight change, dose: 15.0 mg/kg/injection, schedule: Q01DX001 (ip), vehicle: saline) of the same compound?
Answer: Its survivor count is 6 of 10 on day 33.

Question: And the survivor count (T/C endpoint: median tumor weight change, dose: 30.0 mg/kg/injection, schedule: Q01DX001 (ip), vehicle: saline)?
Answer: Its survivor count is 1 of 10 on day 27.
